{"source": "PubChem BioAssay AID686943 (Drosophila RNAi Screening Center, 2013)", "screen": "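Fly genes whose loss alters ERK activation after insulin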 (primary screen)", "system": "Drosophila S2R+ haemocyte-like cells expressing YFP-tagged ERK (Rolled)", "reagent": "long dsRNA against Drosophila genes", "treatment": "insulin stimulation versus unstimulated cells; dose and duration not given", "detection": "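Antibody staining for doubly phosphorylated ERK divided by ERK-YFP signal, as plate z-scores, in insulin-treated and untreated cells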", "direction": "replicate 1, z-score of dpERK with insulin: higher = more active ERK per ERK-YFP after insulin", "note": "The screen tested about 23,000 reagents; shown is a random part of those that have a named target and a result. 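Extra replicates exist only for a retested subset of genes; insulin dose and duration not given; both raised and lowered dpERK matter.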 Further read-outs or replicates are left out here. Not stated in the record: the amount of reagent, the time to read-out."}
{"target":"bam (bag of marbles)","dsRNA":"DRSC16907","replicate 1, z-score of dpERK with insulin":0.62}
{"target":"CG11262","dsRNA":"DRSC09831","replicate 1, z-score of dpERK with insulin":0.38}
{"target":"CG8132","dsRNA":"DRSC16383","replicate 1, z-score of dpERK with insulin":0.86}
{"target":"SmE (Small ribonucleoprotein particle protein SmE)","dsRNA":"DRSC02680","replicate 1, z-score of dpERK with insulin":0.84}
{"target":"DIP1 (DISCO Interacting Protein 1)","dsRNA":"DRSC20818","replicate 1, z-score of dpERK with insulin":0.61}
{"target":"Top3alpha (Topoisomerase 3alpha)","dsRNA":"DRSC03460","replicate 1, z-score of dpERK with insulin":0.09}
{"target":"Pop1 (POP1 ribonuclease P/MRP subunit)","dsRNA":"DRSC17739","replicate 1, z-score of dpERK with insulin":-0.32}

In a second layout: results already given
| target | dsRNA | replicate 1, z-score of dpERK with insulin |
| --- | --- | --- |
| CG11262 | DRSC09831 | 0.38 |
| CG8132 | DRSC16383 | 0.86 |

Next records follow.
{"target":"Dhpr (Dihydropteridine reductase)","dsRNA":"DRSC11135","replicate 1, z-score of dpERK with insulin":-0.11}
{"target":"Oda (Ornithine decarboxylase antizyme)","dsRNA":"DRSC07626","replicate 1, z-score of dpERK with insulin":-0.43}
{"target":"Ssadh (Succinic semialdehyde dehydrogenase)","dsRNA":"DRSC15621","replicate 1, z-score of dpERK with insulin":-0.03}
{"target":"ssx","dsRNA":"DRSC18492","replicate 1, z-score of dpERK with insulin":-0.91}
{"target":"CG33771","dsRNA":"DRSC11718","replicate 1, z-score of dpERK with insulin":0.53}
